Data as given in PubChem BioAssay AID602196 (INSERM, 2012)
Screen: 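Modifiers of cisplatin sensitivity in A549 cells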. Cell system: human A549 lung cancer cells. Reagent: siRNA pair against human genes. Duration: 48 h transfection before cisplatin; time from cisplatin to read-out not stated. Conditions: cisplatin at a dose killing half of control-siRNA cells; exact dose and duration not given. Measurement: 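Shift in cisplatin death relative to control siRNA, from -50 (all cells die) to +50 (no cells die); siRNAs harmful on their own scored 0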. Reading the numbers: two-siRNA summed score (-2 to +2): higher = both siRNAs protect from cisplatin killing; -2 means both sensitise; mean protection from cisplatin (shift in death) and protection from cisplatin (shift in death), siRNA C: higher = protection from cisplatin killing. Rule for the call: 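Each siRNA scores 0 if harmful alone by LDH or WST-1, otherwise +1 if it reduces and -1 if it increases cisplatin killing; a gene is active when both siRNAs agree (sum +2 or -2)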. Calls: active = both siRNAs shift cisplatin killing the same way; inactive = no consistent shift, or siRNA harmful alone.
Shown is a random part of about 23,000 deposited reagents. 455 of them (2%) were called active. 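Active includes both protection and sensitisation; some change values fall well beyond the stated -50 to +50 range.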 Unmarked entries are inactive. Not all columns of the deposit are shown. Not stated in the record: the amount of reagent.

Target gene	two-siRNA summed score (-2 to +2)	mean protection from cisplatin (shift in death) (%)	protection from cisplatin (shift in death), siRNA C (%)
PTGR2	0	-4	-10.8
LOC442081	0	0.4	-0.9
RNH1	1	12.3	18.4
GHRL	0	14.9	33.4
CD37	1	8.9	4.2
ANKRD30BP2	0	-2.1	-8.5
SPA17	0	1.9	-6.3
YIF1B	1	9	21.2
TMEM267	0	5.3	-3.6
LINC00926	0	15.8	17.5
FLJ25778	0	2.9	2.8
CHMP5	0	17.7	6.5
HECTD3	0	14.6	20.4
CLGN	0	4.3	6.6
MAGEB6	0	0	-12.9
LOC392177	0	1.3	1.9
ZNF304	0	5.1	21.5
C2orf15	0	-5.7	-0.5
RANGAP1	0	6.6	-3.5
KIAA0493	-1	-2.5	-24.1
ADAM20	0	-4.8	-0.8
FLJ44955	0	4.2	-9.1
DHX58	2 (active)	25.2	23.5
SMOC2	0	-2	-1.1
RABGEF1	0	12.3	11.4
LOC286327	-1	-12.7	-18.6
MYORG	-1	-27.8	-39.2
CEP63	0	1.9	0.2
KLHDC8B	1	4.7	16.3
NEK10	0	0.3	10.3
EIF2S2	0	-3.9	2.3
FRK	0	-2.6	-7.3
UGT8	0	7.7	11.9
LOC440424	0	8.3	3
UGGT1	0	-0.3	-8.8
SRP19	-1	1.8	17.7
METTL9	-1	-5.5	2.9
SSX6P	0	-2.2	-11.7
WFDC5	0	-1.6	0.8
KRT222	1	9.1	12.5
ATG4D	0	-6.7	-7.5
GJC3	1	14.7	18.7
NCAPD2	0	2.4	14.7
WLS	1	9.6	25.2
LOC401441	0	5.4	8.8
ABT1	-1	0.1	-24.5
TIMM21	0	3.8	-1.5
WDR72	0	1.6	-7.8
ITGA7	-2 (active)	-33.5	-23.6
NIN	0	9.5	-2
SSH2	-1	-12.2	-14.4
NSD2	0	-11.9	-16.6
FOXI2	0	7.9	4.9
RPN2	0	1.4	2.6
TSLIG3C	0	3.5	-0.2
CCDC117	0	3.9	0.8
ADK	0	4.7	14.5

Part of the list above, reformatted.
| Target gene | two-siRNA summed score (-2 to +2) | mean protection from cisplatin (shift in death) (%) | protection from cisplatin (shift in death), siRNA C (%) |
| --- | --- | --- | --- |
| LOC401441 | 0 | 5.4 | 8.8 |
| ABT1 | -1 | 0.1 | -24.5 |
| TIMM21 | 0 | 3.8 | -1.5 |
| WDR72 | 0 | 1.6 | -7.8 |
| ITGA7 | -2 (active) | -33.5 | -23.6 |
| NIN | 0 | 9.5 | -2 |
| SSH2 | -1 | -12.2 | -14.4 |
